Measurements taken from paper PMC6581955, “Rosmarinic acid suppresses Alzheimer’s disease development by reducing amyloid β aggregation by increasing monoamine secretion” (Scientific Reports, 2019).

Tested on: brain gene expression (DEGs)
Assay: DNA microarray analysis in the brain of Tg2576 mice fed RA
Format: in vivo
Conditions: 0.5% RA diet for 10 months; FDR <0.05

O=C(/C=C/c1ccc(O)c(O)c1)O[C@H](Cc1ccc(O)c(O)c1)C(=O)O [RA, rosmarinic acid]
downregulated probe sets (DEGs) vs control group: 636
upregulated probe sets (DEGs) vs control group: 367
